Assay [1] addresses BCL11A-XL in the co-immunoprecipitation with nonO (data not shown) (human) (UniProt Q9H165). The assay can be described thus: co-IP; data not shown; no details given.
Assay [2] addresses Gal4DBD-BCL11A-L, in vitro translated, unlabeled (human) (UniProt Q9H165). The assay can be described thus: co-IP; in vitro translated unlabeled Gal4DBD-BCL11A isoforms and 35S-labeled HA-BCL11A isoforms; anti-Gal4-DBD antibody, IP buffer (50 mM Tris-Cl pH 7.5, 150 mM NaCl, 5 mM MgCl2, 1 mM EDTA, 0.25% NP-40, 1 mM DTT), 1 hr at 4°C, protein A agarose.
Assay [3] has as its target T1, Gal4DBD-BCL11A-S, in vitro translated, unlabeled (human) (UniProt Q9H165).
T1 sequence: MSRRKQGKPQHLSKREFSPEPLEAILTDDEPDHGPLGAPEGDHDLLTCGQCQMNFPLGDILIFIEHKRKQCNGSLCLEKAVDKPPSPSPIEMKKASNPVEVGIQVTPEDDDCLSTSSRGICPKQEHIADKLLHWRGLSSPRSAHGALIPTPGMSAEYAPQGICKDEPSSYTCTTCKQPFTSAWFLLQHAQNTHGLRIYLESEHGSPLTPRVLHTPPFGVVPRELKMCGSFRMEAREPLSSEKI
Described as above.

The target in assay [4] is Gal4DBD-BCL11A-XL, in vitro translated, unlabeled (human) (UniProt Q9H165). The description is as above.

The source of these data is publication PMC1526750.

These are yes or no findings as the source states them, for the method shown. In cells and extracts the contact can be indirect. Some entries that bind do so weakly or less than the wild type. For some of these results: Tags and fused reporters may be left off the sequences shown.

B1: nonO/p54nrb (protein, UniProt Q15233 1-471)
chain: MQSNKTFNLEKQNHTPRKHHQHHHQQQHHQQQQQQPPPPPIPANGQQASSQNEGLTIDLKNFRKPGEKTFTQRSRLFVGNLPPDITEEEMRKLFEKYGKAGEVFIHKDKGFGFIRLETRTLAEIAKVELDNMPLRGKQLRVRFACHSASLTVRNLPQYVSNELLEEAFSVFGQVERAVVIVDDRGRPSGKGIVEFSGKPAARKALDRCSEGSFLLTTFPRPVTVEPMDQLDDEEGLPEKLVIKNQQFHKEREQPPRFAQPGSFEYEYAMRWKALIEMEKQQQDQVDRNIKEAREKLEMEMEAARHEHQVMLMRQDLMRRQEELRRMEELHNQEVQKRKQLELRQEEERRRREEEMRRQQEEMMRRQQEGFKGTFPDAREQEIRMGQMAMGGAMGINNRGAMPPAPVPAGTPAPPGPATMMPDGTLGLTPPTTERFGQAATMEGIGAIGGTPPAFNRAAPGAEFAPNKRRRY
With B1, in assay [1], the binding entry is given as “binds”.

B2: HA-BCL11A-S, in vitro translated, 35S-labeled (protein, UniProt Q9H165-3 1-243)
chain: MSRRKQGKPQHLSKREFSPEPLEAILTDDEPDHGPLGAPEGDHDLLTCGQCQMNFPLGDILIFIEHKRKQCNGSLCLEKAVDKPPSPSPIEMKKASNPVEVGIQVTPEDDDCLSTSSRGICPKQEHIADKLLHWRGLSSPRSAHGALIPTPGMSAEYAPQGICKDEPSSYTCTTCKQPFTSAWFLLQHAQNTHGLRIYLESEHGSPLTPRVLHTPPFGVVPRELKMCGSFRMEAREPLSSEKI
modifications: 35S-labeled
As to B2, the binding entry in assay [2], in assay [3] and in assay [4] was “binds” in each case.
